Measured values taken from patent publication US5914236A, “PCT-65 serotonin receptor” (United States of America, priority 1995, dated 1999).

Protein sequences, listed by entry. Tags and fused reporters are not part of them. Residues count along the entry.
UniProt P32305, 45-448: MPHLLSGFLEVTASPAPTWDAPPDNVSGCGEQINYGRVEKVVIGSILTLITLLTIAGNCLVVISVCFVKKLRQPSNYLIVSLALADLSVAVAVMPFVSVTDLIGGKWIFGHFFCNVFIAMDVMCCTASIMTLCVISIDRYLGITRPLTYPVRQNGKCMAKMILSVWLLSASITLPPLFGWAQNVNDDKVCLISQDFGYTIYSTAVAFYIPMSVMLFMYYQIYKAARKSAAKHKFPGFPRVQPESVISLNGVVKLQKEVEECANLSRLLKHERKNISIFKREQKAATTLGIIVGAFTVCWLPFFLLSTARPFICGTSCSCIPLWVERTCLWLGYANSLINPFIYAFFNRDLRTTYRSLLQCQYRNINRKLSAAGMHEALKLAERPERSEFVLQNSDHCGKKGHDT

Molecular target: T1, PCT-65 receptor (Rattus norvegicus, UniProt P32305)
T1 construct: expressed in transfected cells; host or cells: COS-7 cells (transient, calcium phosphate, pSRα-65)
Experiment: Competition binding to PCT-65 receptor (radioligand not specified)
Conditions: expressed in mammalian cells (COS-7)

CCN(CC)C(=O)N[C@H]1C=C2c3cccc4[nH]cc(c34)C[C@H]2N(C)C1 [Lisuride]
affinity for PCT-65 (in words): relatively high affinity
